Experimental data from patent US7371414B2, “Therapeutic and diagnostic methods dependent on CYP2A enzymes” (Nicogen, Inc., priority 1997, dated 2008).

Biological target: T1, CYP2A6 (Homo sapiens, UniProt P11509)
T1 sequence (P11509 1-494): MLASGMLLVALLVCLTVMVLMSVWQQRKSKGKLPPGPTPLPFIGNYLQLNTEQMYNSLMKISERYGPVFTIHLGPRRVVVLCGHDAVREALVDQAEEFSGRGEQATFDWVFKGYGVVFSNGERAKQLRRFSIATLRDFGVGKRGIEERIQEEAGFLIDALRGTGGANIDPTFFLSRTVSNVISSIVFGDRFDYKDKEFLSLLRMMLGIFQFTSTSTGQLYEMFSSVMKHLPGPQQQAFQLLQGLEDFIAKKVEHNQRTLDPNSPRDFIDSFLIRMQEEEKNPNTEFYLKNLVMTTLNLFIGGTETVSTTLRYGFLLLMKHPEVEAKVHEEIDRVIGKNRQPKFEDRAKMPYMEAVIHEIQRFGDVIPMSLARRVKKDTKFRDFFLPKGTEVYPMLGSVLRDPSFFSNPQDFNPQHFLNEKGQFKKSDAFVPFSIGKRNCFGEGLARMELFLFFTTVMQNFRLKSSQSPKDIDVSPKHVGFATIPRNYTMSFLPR
Assay: Inhibition of nicotine metabolism to cotinine in test livers
Type: biochemical
Set-up: from tissue; host or cells: human smokers in vivo (hepatic CYP2A6)
Conditions: CYP2B6 inhibitor added to coumarin

Cc1ccccc1C(OCCN(C)C)c1ccccc1 (stereo not shown) [orphenadrine]
effect of addition on the inhibition of nicotine metabolism to cotinine by coumarin: enhanced the inhibition
